PMC7819943, “Rice protein-binding microarrays: a tool to detect cis-acting elements near promoter regions in rice”
Some of the results follow.

The sequences below were run against T1, OsSMF1 (Oryza sativa, UniProt Q6ZLB0 1-436) (assay: protein-binding microarray (RPBM); PBS, 2% BSA, 51.3 ng/ul salmon testes DNA, 50 uM zinc acetate, 200 nM TF, 25 C, 1 h; high values mean tight binding). Conditions: protein: recombinant; tags: N-terminal polyhistidine and DsRed monomer fusion (pET32a); chain copies: 2; label: CyDye5-dUTP incorporated in the synthesized complementary strand; 3' TTTTT single-stranded linker to array surface; dsDNA, one strand shown.
T1 sequence: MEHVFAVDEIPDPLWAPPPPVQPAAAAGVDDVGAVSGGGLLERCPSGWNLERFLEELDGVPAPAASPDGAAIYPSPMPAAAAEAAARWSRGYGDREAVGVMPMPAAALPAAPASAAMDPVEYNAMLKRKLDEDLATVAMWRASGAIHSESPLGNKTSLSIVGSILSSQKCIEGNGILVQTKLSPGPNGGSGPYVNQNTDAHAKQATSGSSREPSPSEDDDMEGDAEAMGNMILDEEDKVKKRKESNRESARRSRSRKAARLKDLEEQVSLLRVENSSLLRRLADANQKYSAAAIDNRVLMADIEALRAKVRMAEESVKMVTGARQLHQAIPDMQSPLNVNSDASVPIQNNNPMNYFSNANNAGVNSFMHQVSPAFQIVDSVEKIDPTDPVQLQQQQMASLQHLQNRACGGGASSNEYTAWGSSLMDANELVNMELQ
Outline: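 For the binding signal, per-feature fluorescence intensity was read in arbitrary units on an Axon 4000B scanner. Before scanning, a 2% BSA-blocked custom Agilent array made double-stranded with Cy5-dUTP was washed after 1 h at 25 °C with 200 nM protein and 50 µM zinc acetate. The proteins were Ni–NTA-purified transcription factors with N-terminal polyhistidine and DsRed fusions, expressed in E. coli BL21-CodonPlus.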

Question: How did the binding signal turn out when “CCTACCCCTTTCGTCTCTGCCACGCCCGTGCATATCCATCCGGAGTCACCTAGTGCAG” was run?
Answer: 31300 fluorescence intensity (a.u.)

Question: For “GACGGCGCGACGGAGACTGGCGGGGATAGGGGTGAGGTGGCGGAGTCACCTAGTGCAG”, which binding signal is on record?
Answer: 5460 fluorescence intensity (a.u.)

Question: “ACCATATTCCAATGCTACCTGTGTGCTGCAACCTTCAAGTCGGAGTCACCTAGTGCAG” was tested. Which binding signal did it give?
Answer: 3330 fluorescence intensity (a.u.)

Question: “GCTCTCCCCACCGGTGGTGAGTCACCACGCTGCGTGGCAACGGAGTCACCTAGTGCAG” was tested. Which binding signal did it give?
Answer: 11400 fluorescence intensity (a.u.)

Question: “GATCATGAGTTTGATGACTCAGACAAATGGCACGCTCTAACGGAGTCACCTAGTGCAG” was tested. Which binding signal did it give?
Answer: 10000 fluorescence intensity (a.u.)

Question: Which binding signal does the source give for “ACGGACGGCTTAGATTTCATTAGCCCACACCCAACCCTAGCGGAGTCACCTAGTGCAG” here?
Answer: 3220 fluorescence intensity (a.u.)

Question: “AGTTATTGGTGTACACTAGTCGGCAGGCTAGATTAGCTAGCGGAGTCACCTAGTGCAG” was tested. Which binding signal did it give?
Answer: 15300 fluorescence intensity (a.u.)

Question: For “TGCGTTCCTTGTCGGGAGGGAGGCTGACGCGCCGACGAGCCGGAGTCACCTAGTGCAG”, which binding signal is on record?
Answer: 4790 fluorescence intensity (a.u.)

Question: How did the binding signal turn out when “TTTACAGAGCAAAACCAGAGAATAGAAACCAGCTCGTCTTCGGAGTCACCTAGTGCAG” was run?
Answer: 5360 fluorescence intensity (a.u.)

Question: “TAGAGCTGTAGTTAGTAGTCCGGTCATCTAAGTTAGCATGCGGAGTCACCTAGTGCAG” was tested. Which binding signal did it give?
Answer: 3440 fluorescence intensity (a.u.)

Question: Which binding signal does the source give for “TCCTGCTCCGCCCACTCACCCCGCCACGTGGTGGCTGGGTCGGAGTCACCTAGTGCAG” here?
Answer: 12200 fluorescence intensity (a.u.)

Question: For “ATTTCCGGGCGTGACATTATATAAGCGTACGTGTGCCCTGCGGAGTCACCTAGTGCAG”, which binding signal is on record?
Answer: 5400 fluorescence intensity (a.u.)

Question: “ATCAGCTTTCTCAAACCACGCAGCCACGACACATCGATCTCGGAGTCACCTAGTGCAG” was tested. Which binding signal did it give?
Answer: 4250 fluorescence intensity (a.u.)

Question: How did the binding signal turn out when “CTGTGTAGGCTCGTATTTAAGTAGTGCCGTGTGAACTTTCCGGAGTCACCTAGTGCAG” was run?
Answer: 17700 fluorescence intensity (a.u.)

Question: Which binding signal does the source give for “CGACCCCGTGGTCACGCTCCACGCCATCCGCGCCACCGACCGGAGTCACCTAGTGCAG” here?
Answer: 7680 fluorescence intensity (a.u.)

Question: “TCAGCTAGAATGCTTTAGGACTCCTTTACTAACGCAAGGACGGAGTCACCTAGTGCAG” was tested. Which binding signal did it give?
Answer: 3770 fluorescence intensity (a.u.)

Question: How did the binding signal turn out when “GGTGCTAACCTTCTCCTGGTCATGTGTGTTGGCGCTGCCACGGAGTCACCTAGTGCAG” was run?
Answer: 3810 fluorescence intensity (a.u.)

Question: For “CCCACCTCATCCCTGGCCCCACATGTCATCCACCCAAATCCGGAGTCACCTAGTGCAG”, which binding signal is on record?
Answer: 3150 fluorescence intensity (a.u.)

Question: How did the binding signal turn out when “AGGTGTACCTAGCAAACTAGCTAGCAACTGTACACGCGTACGGAGTCACCTAGTGCAG” was run?
Answer: 3430 fluorescence intensity (a.u.)

Question: With “GCGGCGGCGGCGCGAGGTTGACGACGACCCTGTCAGCGGGCGGAGTCACCTAGTGCAG” as the sequence, how does the binding signal read?
Answer: 3550 fluorescence intensity (a.u.)

Question: “GGTTTTAGCTGACGTGGCGCCTACGTGACAGTGTTGACCCCGGAGTCACCTAGTGCAG” was tested. Which binding signal did it give?
Answer: 32700 fluorescence intensity (a.u.)

Question: With “CTCATAGTCATAGTTACTGATTTGTTTGCTCATAGTCATACGGAGTCACCTAGTGCAG” as the sequence, how does the binding signal read?
Answer: 22700 fluorescence intensity (a.u.)

Question: “TCCATCTCCAGGTCAAGATTTCTGGTTTTGCGGTTCAGTGCGGAGTCACCTAGTGCAG” was tested. Which binding signal did it give?
Answer: 20900 fluorescence intensity (a.u.)

Question: For “CGTCAGATTATCTCTTGCGTGTTGCGTGTAGCTCACCGGACGGAGTCACCTAGTGCAG”, which binding signal is on record?
Answer: 4190 fluorescence intensity (a.u.)

Question: Which binding signal does the source give for “ATCTCTAAACACCAAATTTGACACCGATCCACGTGCACACCGGAGTCACCTAGTGCAG” here?
Answer: 7210 fluorescence intensity (a.u.)

Question: For “TAAGGAAGTGCTACAACTTATACAAACAGCTCATAACAGGCGGAGTCACCTAGTGCAG”, which binding signal is on record?
Answer: 3830 fluorescence intensity (a.u.)

Question: Which binding signal does the source give for “CTACCAGACCCGTGGGCCGGCTCTGCCTCGCCTAATCCAGCGGAGTCACCTAGTGCAG” here?
Answer: 47000 fluorescence intensity (a.u.)

Question: “CTAATGGCACATAGAAATTAGGAGTAACTGTTGTTTAAAACGGAGTCACCTAGTGCAG” was tested. Which binding signal did it give?
Answer: 37600 fluorescence intensity (a.u.)

Question: With “GAAACCCCGTGGGCCCCACCTGTCATTCACTCACCCACCCCGGAGTCACCTAGTGCAG” as the sequence, how does the binding signal read?
Answer: 3460 fluorescence intensity (a.u.)

Question: “TAGGCTCCAACCCAGGCAGGCGCCGCCCACCTTGACGAGGCGGAGTCACCTAGTGCAG” was tested. Which binding signal did it give?
Answer: 3500 fluorescence intensity (a.u.)

Question: With “TCTACACATGGACATGCTGCCTGCTGCATCATATCGTCTGCGGAGTCACCTAGTGCAG” as the sequence, how does the binding signal read?
Answer: 3480 fluorescence intensity (a.u.)

Question: For “GCAGGCTATTGAACGCGGCAAGGTTAGGTACCACGCCATACGGAGTCACCTAGTGCAG”, which binding signal is on record?
Answer: 27600 fluorescence intensity (a.u.)

Question: Which binding signal does the source give for “TTTTCCTTGATGACGTAGCTAAGTCAAGCCTATTAACATGCGGAGTCACCTAGTGCAG” here?
Answer: 4950 fluorescence intensity (a.u.)

Question: With “GTCCCTCCGCCGGCATCAGCTCAACGCCGCCGTCCTCCTCCGGAGTCACCTAGTGCAG” as the sequence, how does the binding signal read?
Answer: 3370 fluorescence intensity (a.u.)

Question: For “GGGGATGGAGATTGTCTTTTCTAGTTTTAGCACTATCCGCCGGAGTCACCTAGTGCAG”, which binding signal is on record?
Answer: 3300 fluorescence intensity (a.u.)

Question: For “GTTGGTGGTGGAGCGGGAGGAGGTGCCGGTGGAGGCGGTGCGGAGTCACCTAGTGCAG”, which binding signal is on record?
Answer: 53000 fluorescence intensity (a.u.)

Question: Which binding signal does the source give for “GATTAACACGACATTAATAGGTACAAATTAAAACACTTACCGGAGTCACCTAGTGCAG” here?
Answer: 14500 fluorescence intensity (a.u.)

Question: How did the binding signal turn out when “CGAGGCGGCTTGACATTGTGTTTGAACTTACGTGCCCAAGCGGAGTCACCTAGTGCAG” was run?
Answer: 4260 fluorescence intensity (a.u.)

Question: How did the binding signal turn out when “CGCCCCACACGTCTGCGTGGTTTGACGTGACAAAATCGGTCGGAGTCACCTAGTGCAG” was run?
Answer: 3980 fluorescence intensity (a.u.)

Question: “TTATGGCCGAGCGCGCATGCGCATGCACCAACACGTGTGGCGGAGTCACCTAGTGCAG” was tested. Which binding signal did it give?
Answer: 4570 fluorescence intensity (a.u.)

Question: How did the binding signal turn out when “CCAAGAGGAGTAATTTGATTGGCTAAGGCAGAGAATAGAGCGGAGTCACCTAGTGCAG” was run?
Answer: 31600 fluorescence intensity (a.u.)

Question: How did the binding signal turn out when “AGGATTAGCAATATATTTATGATGTCATCAGGGCTAGTGACGGAGTCACCTAGTGCAG” was run?
Answer: 5410 fluorescence intensity (a.u.)
